Measured values from patent US20180230231A1 (Memorial Sloan Kettering, published 2018).
Results are given in words; binding and its absence hold for the method and conditions named. Some binding calls cover weakened binding; strength is not graded here. Ends that are not written are not given here.

Assays:
[1] = molecular target: T1, mouse MUC16 on ID8 and BR5-FVB1 cells (mouse); experiment: Western blot of ID8 (mouse) cell extract, primary hybridoma supernatant 1:10
T1 sequence: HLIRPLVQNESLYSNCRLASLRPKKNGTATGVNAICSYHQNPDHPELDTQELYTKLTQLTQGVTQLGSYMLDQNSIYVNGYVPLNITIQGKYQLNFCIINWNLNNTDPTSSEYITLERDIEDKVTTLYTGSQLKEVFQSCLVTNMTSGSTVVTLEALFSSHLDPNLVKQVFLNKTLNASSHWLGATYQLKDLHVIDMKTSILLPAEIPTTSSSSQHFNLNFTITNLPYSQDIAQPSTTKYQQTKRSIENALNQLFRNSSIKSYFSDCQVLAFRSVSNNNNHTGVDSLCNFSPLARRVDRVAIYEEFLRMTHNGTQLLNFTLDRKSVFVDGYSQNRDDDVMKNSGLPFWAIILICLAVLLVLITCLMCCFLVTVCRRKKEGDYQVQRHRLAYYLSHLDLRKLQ

[2] = molecular target: T1, mouse MUC16 on ID8 and BR5-FVB1 cells (mouse); experiment: Western blot of BR5-FVB1 (mouse) cell extract, primary hybridoma supernatant 1:10
[3] = molecular target: T1, mouse MUC16 on ID8 and BR5-FVB1 cells (mouse); experiment: FACS on ID8 (mouse) cells, purified antibody followed by goat anti-mouse IgG2b-PE

binding [1]: binds
binding [2]: binds
binding [3]: binds
B1: 12B10-3G10 (antibody, V domains shown)
VH: EVKLEESGGGLVQPKGSLKLSCAASGFTFNTYAVHWVRQAPGKGMEWVARIRSKSGNYATYYADSVKDRFTISRNDSQSMLYLQMNNLKTEDTAIYYCVRAGNNGAFPYWGQGTTVTVSS
VL: DIELTQSPSSLSASLGGRVTITCKASQDIKKYIAWYQHKPGKTPRLLIHFTSTLQTGIPSRFSGRGSGRDYSFSISNLESEDIATYYCLQYDSLYTFGGGTKLEIKR
notes: Mouse mAb against mouse MUC16, IgG 2b; also called mouse 12B10 mAb; 12B10-3F7
